Laboratory results: patent US12685777B2, “Compositions, systems, and methods for modulating a target gene” (The Board of Trustees of the Leland Stanford Junior …, priority 2022, dated 2026)
For at least one compound, name, drawing or mass did not settle the structure.

Test system: DLBCL cells
Assay: Killing of DLBCL cell lines (cell viability)
Format: cell-based
Settings: JQ1 and Bl3812 added separately or together, 72 hours
Description: 30,000 cells were plated in 100 μL media per well of a 96 well plate and treated with drug for indicated times and doses. A resazurin-based indicator of cell health (PrestoBlue, ThermoFisher #P50200) was added for 1.5 hours after which the fluorescence ratio at 560/590 nm was recorded. The background fluorescence was subtracted and the signal was normalized to DMSO-treated cells. EC50 measurements on cell lines were done with 4 biological repeats by separate cell passages maintained by 3 independent investigators. Fit of dose-response curves to data and statistical analysis was performed using drc package in R using the four-parameter log-logistic function.
It was noted that neither Bl3812 nor JQ1 produced complete loss of cell viability (FIG. 28, Panel A) leaving a resistant population of cells as has been previously reported.

SMILES: Cc1sc2c(c1C)C(c1ccc(Cl)cc1)=N[C@@H](CC(=O)OC(C)(C)C)c1nnc(C)n1-2 [JQ1]
- Less effective cell killing than TCIP1: 100-fold to 1000-fold
